About 10,000 (2.8%) of roughly 360,000 compounds were called active. Inconclusive results, whose numbers are uncertain, are shown with a selection of clear calls. The call rests on the fitted dose curve; in most records, active means well fitted inhibition curve with a large enough effect; inconclusive means small, poorly fitted or top-dose-only effect; inactive means flat fitted curve, though single readings scatter. A potency beside an inconclusive call is a rough fit, not a confirmed value.
biological target: Serine/threonine-protein kinase PLK1 (Homo sapiens) (UniProt P53350); assay: qHTS for Inhibitors of PLK1-PDB (polo-like kinase 1 - polo-box domain): Primary Screen; conditions: Plk1 PBD binding of FITC phosphopeptide, fluorescence polarization; further: nearly all actives have a fitted effect of over 65% in size; on max response, negative = inhibition: series mostly up to about 57 µM
On the % scale 0 is the no-effect control and ±100 the full control effect; potency means the concentration at half of the fitted maximal effect.

Sequences of proteins named here, by UniProt entry; tags and fusion partners are left off.
UniProt P53350, whole entry, looked up: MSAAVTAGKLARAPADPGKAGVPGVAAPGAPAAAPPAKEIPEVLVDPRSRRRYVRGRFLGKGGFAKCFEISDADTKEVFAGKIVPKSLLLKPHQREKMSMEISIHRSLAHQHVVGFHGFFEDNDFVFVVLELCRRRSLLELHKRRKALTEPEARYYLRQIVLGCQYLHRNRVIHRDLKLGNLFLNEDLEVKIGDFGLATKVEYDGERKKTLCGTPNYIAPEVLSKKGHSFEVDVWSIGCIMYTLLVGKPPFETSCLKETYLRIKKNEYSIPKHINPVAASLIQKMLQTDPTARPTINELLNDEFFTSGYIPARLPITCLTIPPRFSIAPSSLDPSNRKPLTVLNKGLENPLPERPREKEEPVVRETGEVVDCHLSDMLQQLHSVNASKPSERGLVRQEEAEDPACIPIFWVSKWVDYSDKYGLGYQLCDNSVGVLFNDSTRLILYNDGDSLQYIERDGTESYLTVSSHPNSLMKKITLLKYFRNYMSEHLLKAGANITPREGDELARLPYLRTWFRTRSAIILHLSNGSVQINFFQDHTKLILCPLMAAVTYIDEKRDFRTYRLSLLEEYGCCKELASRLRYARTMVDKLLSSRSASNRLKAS

Row | SMILES | Potency | max response, negative = inhibition
1 | CC1=NN(c2ccccc2)C(=O)/C1=C/c1ccc(-c2ccc(C)c(C(=O)O)c2)o1 | active: 4.74 µM | 
2 | Cc1c(N=C2NN=C(c3c[nH]c4ccccc34)CS2)c(=O)n(-c2ccccc2)n1C | inconclusive: 33.6 µM [inhibitor, single point] | 
3 | COc1ccc(NC(=S)N(Cc2ccc(Cl)cc2)Cc2ccc(C(=O)O)cc2)cc1Cl | inconclusive: 21.2 µM [inhibitor, partial curve] | 
4 | O=C(Nc1nc2c(s1)CCCC2)C1COc2ccccc2O1 (centres undefined) | inconclusive: 26.7 µM [inhibitor, single point] | 
5 | O=C(NNC(=S)NCc1ccc(Cl)cc1)c1ccc2c(c1)OCO2 | inconclusive: 13.4 µM [inhibitor, partial curve] | 
6 | O=C(CCl)NNc1nc(-c2ccccc2)c2cc(Cl)ccc2n1 | inconclusive: 23.8 µM [inhibitor, partial curve] | 
7 | O=C1c2cc([N+](=O)[O-])cc3cc([N+](=O)[O-])cc(c23)C(=O)N1c1ccccn1 | inconclusive: 15 µM [inhibitor, partial curve] | 
8 | CC(=O)NS(=O)(=O)c1ccc(N=c2ssc3c2-c2cc(C)c(C)cc2NC3(C)C)cc1 | inconclusive: 29.9 µM [inhibitor, partial curve] | 
9 | COc1ccc(-c2nn(-c3ccccc3)cc2C2CC(c3cccs3)=NN2C(=O)CCCC(=O)O)cc1 (centres undefined) |  | inactive: -7.88%
10 | O=C(N/N=C(/CC(=O)c1cccs1)C(F)(F)F)c1ccc(O)cc1 |  | inactive: -28.1%
11 | CC(=O)Nc1ccc(S(=O)(=O)Oc2cccc(/C=N/N=C3/NC(=O)C(CC(=O)O)S3)c2)cc1 (centres undefined) |  | inconclusive: -34.2% [inhibitor]
12 | COCCn1c(SCc2c(F)cccc2Cl)nc2c1c(=O)[nH]c(=O)n2C | inconclusive: 23.8 µM [inhibitor, partial curve] | 
13 | CCOC(=O)c1ccc(NC(=O)CN2C(=O)C(C)SC(C)C2=O)cc1 (centres undefined) |  | inactive: -6.58%
14 | O=C(NNS(=O)(=O)c1ccccc1F)c1cc(-c2ccccc2)n[nH]1 |  | inactive: -15.5%
15 | CC(C)Oc1cccc(-c2cc(C(=O)NC(=S)N(C)c3ccccc3C(=O)O)c3ccccc3n2)c1 | inconclusive: 21.2 µM [inhibitor, single point] | 
16 | Cc1ccc(C(=O)Nc2ccccc2C(=O)O)cc1S(=O)(=O)Nc1ccc(Br)cc1 | inconclusive: 29.9 µM [inhibitor, partial curve] | 
17 | CS(=O)(=O)N1CCC(C(=O)N2CCN(Cc3ccccc3)CC2)CC1 |  | inactive: -4.07%
18 | CC(=O)c1ccc(NC(=O)COC(=O)c2ccccc2Nc2ccccc2)cc1 | active: 26.7 µM | 
19 | Cc1cc(-c2nc3c4c5c(sc4[nH]c(=O)n3n2)CCC5)c(C)o1 | inconclusive: 26.7 µM [inhibitor, single point] | 
20 | C=CCSc1ncc(C(=O)OCC)c(N)n1 |  | inactive: -12.2%
21 | COC(=O)C1CSc2[nH]c(=O)sc2C1c1ccccc1 (centres undefined) | active: 26.7 µM | 
22 | OC[C@H]1O[C@@H]2O[C@H]3[C@H](O)[C@@H](O)[C@@H](O[C@H]4[C@H](O)[C@@H](O)[C@@H](O[C@H]5[C@H](O)[C@@H](O)[C@@H](O[C@H]6[C@H](O)[C@@H](O)[C@@H](O[C@H]7[C@H](O)[C@@H](O)[C@@H](O[C@H]1[C@H](O)[C@H]2O)O[C@@H]7CO)O[C@@H]6CO)O[C@@H]5CO)O[C@@H]4CO)O[C@@H]3CO |  | inconclusive: -36.5% [inhibitor]

Two of these compounds in another layout.

| Row | SMILES | Potency | max response, negative = inhibition |
| --- | --- | --- | --- |
| 14 | O=C(NNS(=O)(=O)c1ccccc1F)c1cc(-c2ccccc2)n[nH]1 |  | inactive: -15.5% |
| 18 | CC(=O)c1ccc(NC(=O)COC(=O)c2ccccc2Nc2ccccc2)cc1 | active: 26.7 µM |  |

Continuation.

Row | SMILES | Potency | max response, negative = inhibition
23 | C=CCOc1ccc(C2c3c(oc4ccccc4c3=O)C(=O)N2CCCN2CCOCC2)cc1 (centres undefined) | inconclusive: 29.9 µM [inhibitor, partial curve] | 
24 | CCOC(=O)c1sc(N(C)C)nc1-c1ccccc1 | inconclusive: 23.8 µM [inhibitor, partial curve] | 
25 | COc1ccc(Nc2ccc(N3C(=O)CCC3=O)cc2[N+](=O)[O-])cn1 |  | inactive: -6.09%
26 | COc1ccc(CCN2CC(C(=O)NCc3cccc(F)c3)CCC2=O)cc1 (centres undefined) |  | inactive: 1.29%
27 | C#CC[N+](C)(C)CC#Cc1ccccc1 | inconclusive: 26.7 µM [inhibitor, partial curve] | 
28 | O=C(NNC(=S)Nc1ccc(Br)cc1)c1ccccc1 |  | inactive: -27.1%
29 | Cc1cccc2cc(COC(=O)c3cccs3)c(=O)[nH]c12 | inconclusive: 10.6 µM [inhibitor, partial curve] | 
30 | Cc1cc(-c2ccccc2)nc2cc(C(=O)NCCCn3ccnc3)nn12 | inconclusive: 26.7 µM [inhibitor, partial curve] | 
31 | Cc1cc(C)nc(N/N=C/c2ccccc2OCC(=O)O)n1 | inconclusive: 29.9 µM [inhibitor, single point] | 
32 | O=C(c1ccco1)N1CC2(CC(c3ccc(Cl)cc3)=NO2)CN1Cc1ccc(Br)cc1 (centres undefined) |  | inactive: 0.0916%
33 | Cc1ccccc1N/C(=N/S(=O)(=O)c1ccccc1)c1ccc(F)cc1 | active: 37.7 µM | 
34 | CCOc1ccc(-c2cc(CCCC(=O)Nc3cc(OC)ccc3OC)no2)cc1 |  | inactive: 1.4%
35 | Cc1[nH]nc2c1C(c1ccc(-c3ccc(Cl)cc3)o1)C(C#N)=C(N)O2 (centres undefined) | inconclusive: 15 µM [inhibitor, partial curve] | 
36 | CCCCN(C)C(=O)c1cc2cc([N+](=O)[O-])cc(OC)c2oc1=O | inconclusive: 33.6 µM [inhibitor, partial curve] | 
37 | Cc1cc(=O)oc2cc(OCC(=O)OC(C)C(=O)NC3CCCC3)ccc12 (centres undefined) | inconclusive: 37.7 µM [inhibitor, single point] | 
38 | Cc1ccc(-c2nc(NC(=O)CSc3cc(C)c4ccccc4n3)ns2)cc1 | inconclusive: 16.8 µM [inhibitor, partial curve] | 
39 | O=C(O)/C(=C\c1ccccc1Cl)c1ccc(S(=O)(=O)N2CCCCC2)s1 |  | inactive: -12.1%
40 | CCCCN(CCCC)C(=O)/C=C/c1cccc([N+](=O)[O-])c1 |  | inactive: -5.38%
41 | CCN1CCc2c(sc(NC(=O)c3ccc(S(=O)(=O)N(C)c4ccccc4)cc3)c2C(=O)NC)C1 | inconclusive: 37.7 µM [inhibitor, single point] | 
42 | CCOc1ccccc1N/C(=C(/C(Cl)=C(Cl)Cl)[N+](=O)[O-])n1cncn1 | inconclusive: 26.7 µM [inhibitor, partial curve] | 
43 | CC1=C([N+](=O)[O-])C(c2ccccc2C(F)(F)F)NC(=O)N1C (centres undefined) |  | inactive: 4.93%
44 | O=S(=O)(c1ccccc1)N1CCN(C(=S)NCCCN2CCOCC2)CC1 | inconclusive: 11.9 µM [inhibitor, partial curve] | 

Filtered by structure, the entries above containing an aryl thioether with sulfur outside any ring.
Row | SMILES | Potency | max response, negative = inhibition
12 | COCCn1c(SCc2c(F)cccc2Cl)nc2c1c(=O)[nH]c(=O)n2C | inconclusive: 23.8 µM [inhibitor, partial curve] | 
20 | C=CCSc1ncc(C(=O)OCC)c(N)n1 |  | inactive: -12.2%
38 | Cc1ccc(-c2nc(NC(=O)CSc3cc(C)c4ccccc4n3)ns2)cc1 | inconclusive: 16.8 µM [inhibitor, partial curve] | 

More results follow:

Row | SMILES | Potency | max response, negative = inhibition
45 | CC(C)[C@H](NC(=O)c1ccco1)C(=O)OCc1cc(=O)n2c(n1)sc1ccccc12 | inconclusive: 29.9 µM [inhibitor, partial curve] | 
46 | Cc1n[nH]c(C)c1Sc1ccccc1N=Cc1cc(Cl)cc([N+](=O)[O-])c1O | inconclusive: 21.2 µM [inhibitor, partial curve, poor fit] | 
47 | O=C(Cn1cnc2sc(-c3ccccc3)cc2c1=O)NCc1ccccc1 |  | inactive: -7.33%
48 | O=C(/C=C/c1ccco1)Nc1cccc(C(=O)Nc2ccccc2C(=O)O)c1 | active: 21.2 µM | 
49 | COc1ccc(C2=CC3=C(Br)C(=O)C(C)(O)C(=O)C3=CO2)cc1 (centres undefined) | inconclusive: 11.9 µM [inhibitor, partial curve] | 
50 | COc1ccc(NC(=O)CSc2nc(=O)n(CCN3CCOCC3)c3c2CCC3)c(OC)c1 |  | inactive: -3.5%
51 | CCn1c(N)[n+](CC(=O)Nc2ccc(SC(F)F)cc2)c2ccccc21 | inconclusive: 18.9 µM [inhibitor, partial curve] | 
52 | Cc1ccc(C)c(NC(=O)CSc2nc3ccc(N4C(=O)c5ccccc5C4=O)cc3s2)c1 | inconclusive: 42.3 µM [inhibitor, partial curve] | 
53 | CCN(CC)S(=O)(=O)c1ccc(N/N=C/c2ccc(OC)c(OC)c2OC)nc1 | inconclusive: 21.2 µM [inhibitor, partial curve] | 
54 | COCCn1c(NC(=S)NC(=O)C23CC4CC(CC(C4)C2)C3)cc(=O)[nH]c1=O | inconclusive: 16.8 µM [inhibitor, partial curve] | 
55 | COc1cc(OC)cc(-c2sc3ccc(OC)cc3c2-c2ccc(OCCN3CCCCC3)cc2)c1 |  | inactive: -13.9%
56 | CSc1ccc(CN2CCC(n3nccc3NC(=O)c3ccccc3C)CC2)cc1 | active: 29.9 µM | 
57 | COc1cc(C(=O)NCc2nnc(SCC(=O)c3ccccc3)o2)cc(OC)c1OC |  | inconclusive: -37.3% [inhibitor]
58 | COCCn1c(SCc2cc(C(C)=O)ccc2OC)nc2cc(Cl)ccc2c1=O |  | inactive: -3.3%
59 | C/C=C\C=C/C(=O)Nc1cccc(C2=NOC3(C2)C[C@@H](C(N)=O)N(C(=O)CCCCC)C3)c1 (some centres undefined) | inconclusive: 21.2 µM [inhibitor, partial curve] | 
60 | COCCCn1c(SCc2cc(=O)[nH]c3ccccc23)nnc1-c1ccco1 | inconclusive: 29.9 µM [inhibitor, single point] | 
61 | CCn1ccnc1CNCc1cn(-c2cc(C)ccc2C)nc1-c1ccccc1 | inconclusive: 8.44 µM [inhibitor, single point] | 
62 | Nc1cccc2c1C(=O)N(C(=O)c1ccc(Cl)c(S(=O)(=O)N3CCCCCC3)c1)C2=O | inconclusive: 11.9 µM [inhibitor, partial curve] | 
63 | Cn1cc(CN2CCCC(C(=O)Nc3cccc(-c4cc5ccccc5[nH]4)c3)C2)cn1 (centres undefined) |  | inactive: 0.866%
64 | COc1ccc(/C=N/NC(=O)COc2ccc3ccccc3c2)c(C(=O)O)c1OC | active: 26.7 µM | 

Reference: PubChem BioAssay AID720504 (National Center for Advancing Translational Sciences (NCATS), 2013)
